At least one compound was matched to its structure with a doubt left.
Experiments:
BMDC cells = test: Continuous IL-12 secretion after reseeding in fresh medium, ELISA; format: cell-based; details: 1 μg/mL for 12 hours, reseeded in fresh medium; FIG. 9
BMDCs = test: Expression of co-stimulatory molecules (dendritic cell maturation), flow cytometry; format: cell-based; details: 1 μg/mL; FIG. 8

## CCOCc1nc2c(N)nc3ccccc3c2n1CC(C)(C)O [Compound R848]
BMDC cells
  IL-12 after replacing with a fresh medium: no longer observed
BMDCs
  expression level of co-stimulatory molecules (CD80, CD86) over time: does not increase over time
